# Library screen at single concentrations

Measurements from “University of Dundee, Small-Polar-MMV Screening Library” (2021), ChEMBL document CHEMBL3988442.

The filed quantity is “Percent Effect” (%). The controls that fix the scale are not given in the record; negative values are as filed. The compounds are a random part of those screened.

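Assay of Toxoplasma gondii numbers, read through their beta-galactosidase reporter with a colour substrate. Concentration: 50 µM. The record gives no direction; the compounds picked for IC50 retests had high values, so higher reads as fewer parasites. About 18,000 compounds were tested under these conditions; 0.94% (about 170) showed 50% or more at least once.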

Cc1ccc(C(=O)N2CCCC2c2cccs2)c(=O)[nH]1 (stereo not shown) read -0.7829%.
CC(=O)Nc1ccccc1C=CBr read -6.81%.
CSCC(=O)Nc1ccc(N2CCN(C)CC2)cc1C read -1.512%.
O=C(Cc1cccc(O)c1)NC1CCN(C2CC2)C1 (stereo not shown) read -5.324%.
Cc1ccc(-n2cc(NC(=O)CN(C)C)cn2)c(C)c1 read -11.22%.
Nc1c(C(=O)N2CCOCC2)cnn1-c1ccccc1 read -4.129%.
O=C1OCc2cc(-n3cccc3)ccc21 read 1.272%.
CC(O)C(C)(C)NC(=O)CN1CCc2ccccc21 (stereo not shown) read -10.05%.
CS(=O)(=O)c1ccc(NC(=O)CN)cc1 read -2.801%.
CCC1=CS(=O)(=O)c2ccccc21 read -5.996%.
CC(=O)Nc1ccc(C(=O)N(C)Cc2cccs2)cc1 read 19.22%.
CN(Cc1ccsc1)C(=O)CN1CCN(CCO)CC1 read 6.487%.
CCNc1ncc(C(=O)N2CC=CC2CO)cn1 (stereo not shown) read 6.081%.
O=C(NCCOc1ncccc1Cl)c1cc(Cl)c[nH]1 read 4.98%.
N#Cc1ccc(C(=O)Nc2cncc(Br)c2O)nc1 read -1.083%.
CSc1ccc(NC(=O)NCC2(O)CCNC2)cc1 (stereo not shown) read 15.92%.
CCCc1nc(C)cc(NCCO)n1 read 22.28%.
COc1cccc(C(=O)N2C[C@H](C3CC3)[C@@H](N)C2)c1C read 6.298%.
CN1CC(NC(=O)CCC(=O)c2cccs2)CCC1=O (stereo not shown) read -1.402%.
CS(=O)(=O)c1ccc(-c2cnc(N)cn2)cc1 read 29.78%.
COc1ccc(C(=O)NCCN2CCCC2)cc1 read 28.83%.
CC(C)Nc1ncccc1C(=O)Nc1nncs1 read -23.83%.
O=C(NC1CCS(=O)(=O)C1)c1cc2cccc(Cl)c2s1 (stereo not shown) read 10.9%.
O=S(=O)(NCCO)c1ccc2ccccc2c1 read 4.99%.
CNC(=O)Cn1cc(-c2ccc(F)cc2Cl)cn1 read 12.89%.
NC1(CO)Cc2ccccc2C1 read -16.34%.
CCc1ccccc1NC(=O)C1=NN(C)C(=O)CC1 read 53.5%.
CCN1CC(C(N)=O)CC1=O (stereo not shown) read 16.83%.
COc1cc(OC)cc(N2CCC(N)C2)c1 (stereo not shown) read -14.71%.
COc1ccc(S(=O)(=O)N2CCCNCC2)cc1 read 2.489%.
Cn1cc(Br)c(=O)c(NC(=O)c2cc(Cl)ccn2)c1 read 3.591%.
COCC(=O)NCc1noc(-c2cccc(C)c2)n1 read 2.597%.
CC(C)(C)c1ccc(N)nc1 read -14.75%.
CN1CCCN(C(=O)NCCCNS(C)(=O)=O)CC1 read 0.6749%.
CS(=O)(=O)NCCC1=CCCCC1 read 11.06%.
C=C(Br)CNC(C(=O)N1CCOCC1)C(C)C (stereo not shown) read -2.072%.
CS(=O)(=O)NC1CCN(CCn2cc(Cl)cn2)CC1 read -1.515%.
COCC1CCCN(C(=O)Cc2ccccc2O)C1 (stereo not shown) read -1.563%.

Some entries from above, unchanged:

structure,percent effect
Nc1c(C(=O)N2CCOCC2)cnn1-c1ccccc1,-4.129%
CSc1ccc(NC(=O)NCC2(O)CCNC2)cc1 (stereo not shown),15.92%
COc1cccc(C(=O)N2C[C@H](C3CC3)[C@@H](N)C2)c1C,6.298%
NC1(CO)Cc2ccccc2C1,-16.34%